± gives the standard deviation of the averaged measurements. Only a part is listed here, and it is no random draw.
Compound: Nc1ncnc2c1ncn2[C@@H]1O[C@H](COP(=O)(O)OP(=O)(O)NP(=O)(O)O)[C@@H](O)[C@H]1O [adenylyl imidodiphosphate]
Test: NP40-soluble protein abundance relative to vehicle (solubility fold change) (ratio); higher = more soluble protein in presence of AMP-PNP
Outline: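 Across three independent experiments, values are fold changes against the detergent-processed vehicle for each replicate, based on vsn-normalised intensities. The samples were Jurkat crude lysate treated with eight concentrations (0.1 to 10 mM) for 10 min at room temperature and then 3 min at 37 °C. Lysate was solubilised with 0.8% NP40 and benzonase, ultracentrifuged, and the supernatant analysed by TMT-labelled LC-MS/MS.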

Protein sequences, listed by entry. Tags and fused reporters are not part of them. Lines headed by an entry give the natural chain unless they say otherwise; changes in a name come on top.
UniProt Q9Y4R8, whole entry: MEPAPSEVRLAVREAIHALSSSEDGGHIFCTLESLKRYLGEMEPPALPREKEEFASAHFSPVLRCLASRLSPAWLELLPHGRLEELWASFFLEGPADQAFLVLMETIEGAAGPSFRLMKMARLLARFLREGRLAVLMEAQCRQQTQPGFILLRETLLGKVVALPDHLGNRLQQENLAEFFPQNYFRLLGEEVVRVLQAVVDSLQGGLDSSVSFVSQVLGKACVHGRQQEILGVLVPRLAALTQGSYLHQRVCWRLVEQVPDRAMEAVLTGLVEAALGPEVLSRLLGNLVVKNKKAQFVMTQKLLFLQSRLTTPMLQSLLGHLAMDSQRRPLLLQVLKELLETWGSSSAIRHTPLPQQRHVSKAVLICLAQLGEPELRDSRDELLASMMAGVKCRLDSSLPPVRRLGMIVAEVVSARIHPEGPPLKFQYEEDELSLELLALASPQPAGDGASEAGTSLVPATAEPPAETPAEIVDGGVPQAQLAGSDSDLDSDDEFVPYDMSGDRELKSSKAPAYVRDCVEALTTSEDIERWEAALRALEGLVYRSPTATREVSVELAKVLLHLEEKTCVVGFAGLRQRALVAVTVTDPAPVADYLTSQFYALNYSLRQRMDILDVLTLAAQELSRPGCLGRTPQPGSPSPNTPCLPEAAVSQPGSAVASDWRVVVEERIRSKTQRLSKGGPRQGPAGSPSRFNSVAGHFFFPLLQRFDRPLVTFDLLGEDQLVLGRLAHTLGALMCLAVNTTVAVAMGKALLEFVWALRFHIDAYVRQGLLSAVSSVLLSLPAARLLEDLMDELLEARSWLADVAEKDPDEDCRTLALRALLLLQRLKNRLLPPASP
UniProt Q9Y4G8: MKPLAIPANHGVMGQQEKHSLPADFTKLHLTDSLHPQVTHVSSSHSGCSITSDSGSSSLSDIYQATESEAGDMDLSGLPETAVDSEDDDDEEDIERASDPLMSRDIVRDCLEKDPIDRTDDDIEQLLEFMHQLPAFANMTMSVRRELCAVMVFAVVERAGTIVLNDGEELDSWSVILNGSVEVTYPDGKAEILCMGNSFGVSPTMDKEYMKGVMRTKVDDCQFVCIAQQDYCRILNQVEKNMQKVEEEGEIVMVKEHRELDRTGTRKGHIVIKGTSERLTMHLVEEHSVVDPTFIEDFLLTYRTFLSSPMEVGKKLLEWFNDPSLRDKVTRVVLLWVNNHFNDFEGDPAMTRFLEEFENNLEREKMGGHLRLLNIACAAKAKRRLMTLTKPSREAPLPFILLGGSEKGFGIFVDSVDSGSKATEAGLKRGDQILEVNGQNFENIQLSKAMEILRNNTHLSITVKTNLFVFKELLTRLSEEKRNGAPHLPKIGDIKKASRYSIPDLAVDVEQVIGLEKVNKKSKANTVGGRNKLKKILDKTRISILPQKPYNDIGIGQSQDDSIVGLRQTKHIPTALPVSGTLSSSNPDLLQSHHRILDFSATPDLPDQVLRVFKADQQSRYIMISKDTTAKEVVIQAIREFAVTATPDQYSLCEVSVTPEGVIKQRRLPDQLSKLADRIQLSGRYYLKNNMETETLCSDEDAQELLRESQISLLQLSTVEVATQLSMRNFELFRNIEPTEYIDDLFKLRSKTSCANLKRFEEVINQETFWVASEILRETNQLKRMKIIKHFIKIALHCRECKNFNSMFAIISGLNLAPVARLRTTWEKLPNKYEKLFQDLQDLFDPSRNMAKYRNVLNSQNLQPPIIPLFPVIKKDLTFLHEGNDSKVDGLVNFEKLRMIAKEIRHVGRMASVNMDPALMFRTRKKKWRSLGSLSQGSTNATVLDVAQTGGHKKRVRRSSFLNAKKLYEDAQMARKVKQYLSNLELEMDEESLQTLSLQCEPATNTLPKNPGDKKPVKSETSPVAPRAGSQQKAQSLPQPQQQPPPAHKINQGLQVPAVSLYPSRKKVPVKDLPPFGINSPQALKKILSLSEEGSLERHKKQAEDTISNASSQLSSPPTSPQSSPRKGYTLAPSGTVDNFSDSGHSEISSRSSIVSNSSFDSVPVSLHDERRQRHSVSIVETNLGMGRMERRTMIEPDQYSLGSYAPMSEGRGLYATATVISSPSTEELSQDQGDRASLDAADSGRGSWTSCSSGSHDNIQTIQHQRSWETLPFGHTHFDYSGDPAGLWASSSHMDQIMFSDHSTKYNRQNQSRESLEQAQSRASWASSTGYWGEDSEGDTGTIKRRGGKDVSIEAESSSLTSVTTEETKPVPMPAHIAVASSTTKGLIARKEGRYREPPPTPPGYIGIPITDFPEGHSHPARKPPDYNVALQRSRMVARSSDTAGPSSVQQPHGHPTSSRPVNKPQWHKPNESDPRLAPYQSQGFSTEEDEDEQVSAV
UniProt Q9Y3Q3: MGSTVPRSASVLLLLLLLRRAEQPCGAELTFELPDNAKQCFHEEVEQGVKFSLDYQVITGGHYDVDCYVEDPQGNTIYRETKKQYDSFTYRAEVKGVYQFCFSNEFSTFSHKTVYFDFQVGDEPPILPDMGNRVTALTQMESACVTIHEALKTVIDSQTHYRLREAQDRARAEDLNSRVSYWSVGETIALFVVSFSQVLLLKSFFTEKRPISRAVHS
UniProt Q9Y5P6: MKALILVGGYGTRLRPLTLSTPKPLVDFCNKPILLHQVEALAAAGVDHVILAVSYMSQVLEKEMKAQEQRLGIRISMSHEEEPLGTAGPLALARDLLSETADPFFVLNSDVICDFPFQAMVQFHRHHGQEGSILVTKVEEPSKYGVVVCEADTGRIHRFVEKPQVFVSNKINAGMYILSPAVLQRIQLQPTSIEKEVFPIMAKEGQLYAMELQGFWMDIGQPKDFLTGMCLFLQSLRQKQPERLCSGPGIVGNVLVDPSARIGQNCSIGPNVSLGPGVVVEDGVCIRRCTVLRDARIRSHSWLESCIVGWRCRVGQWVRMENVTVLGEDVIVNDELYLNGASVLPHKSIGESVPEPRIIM
UniProt Q9Y5Z9: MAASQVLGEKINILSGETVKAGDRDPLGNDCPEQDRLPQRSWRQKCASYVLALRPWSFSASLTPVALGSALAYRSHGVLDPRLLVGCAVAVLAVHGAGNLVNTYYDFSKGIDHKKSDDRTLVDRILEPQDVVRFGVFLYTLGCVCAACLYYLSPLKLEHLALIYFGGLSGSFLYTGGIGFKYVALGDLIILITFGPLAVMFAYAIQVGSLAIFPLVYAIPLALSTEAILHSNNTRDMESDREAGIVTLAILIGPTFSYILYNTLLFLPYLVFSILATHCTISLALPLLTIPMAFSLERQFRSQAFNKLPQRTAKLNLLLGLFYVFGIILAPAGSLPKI
UniProt Q9Y5L4: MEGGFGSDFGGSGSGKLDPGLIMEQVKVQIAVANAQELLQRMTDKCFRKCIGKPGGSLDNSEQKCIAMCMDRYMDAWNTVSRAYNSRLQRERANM
UniProt Q9Y5X3: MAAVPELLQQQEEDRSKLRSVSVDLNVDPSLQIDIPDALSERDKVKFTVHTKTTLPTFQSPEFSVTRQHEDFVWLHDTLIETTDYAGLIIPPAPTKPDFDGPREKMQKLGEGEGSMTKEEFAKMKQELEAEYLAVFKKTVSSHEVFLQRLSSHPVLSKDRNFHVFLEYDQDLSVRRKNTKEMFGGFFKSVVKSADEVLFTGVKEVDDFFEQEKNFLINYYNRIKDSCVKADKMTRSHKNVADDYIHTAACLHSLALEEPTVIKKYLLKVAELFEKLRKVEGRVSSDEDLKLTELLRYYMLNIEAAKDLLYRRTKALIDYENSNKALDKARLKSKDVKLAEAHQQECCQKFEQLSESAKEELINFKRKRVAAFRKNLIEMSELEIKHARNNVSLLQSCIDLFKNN
UniProt Q9NXR5: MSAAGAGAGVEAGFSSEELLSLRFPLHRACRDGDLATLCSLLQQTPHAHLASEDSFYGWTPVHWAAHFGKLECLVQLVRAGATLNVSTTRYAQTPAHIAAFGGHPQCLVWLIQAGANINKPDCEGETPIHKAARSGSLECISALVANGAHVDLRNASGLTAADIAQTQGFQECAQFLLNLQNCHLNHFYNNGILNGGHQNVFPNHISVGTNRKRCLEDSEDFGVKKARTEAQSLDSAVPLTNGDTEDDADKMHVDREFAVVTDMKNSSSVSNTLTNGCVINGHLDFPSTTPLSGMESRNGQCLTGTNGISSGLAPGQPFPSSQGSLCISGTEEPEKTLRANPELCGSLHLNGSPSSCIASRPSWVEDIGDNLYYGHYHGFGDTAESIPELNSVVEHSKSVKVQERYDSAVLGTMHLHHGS
UniProt Q9Y6G9, whole entry: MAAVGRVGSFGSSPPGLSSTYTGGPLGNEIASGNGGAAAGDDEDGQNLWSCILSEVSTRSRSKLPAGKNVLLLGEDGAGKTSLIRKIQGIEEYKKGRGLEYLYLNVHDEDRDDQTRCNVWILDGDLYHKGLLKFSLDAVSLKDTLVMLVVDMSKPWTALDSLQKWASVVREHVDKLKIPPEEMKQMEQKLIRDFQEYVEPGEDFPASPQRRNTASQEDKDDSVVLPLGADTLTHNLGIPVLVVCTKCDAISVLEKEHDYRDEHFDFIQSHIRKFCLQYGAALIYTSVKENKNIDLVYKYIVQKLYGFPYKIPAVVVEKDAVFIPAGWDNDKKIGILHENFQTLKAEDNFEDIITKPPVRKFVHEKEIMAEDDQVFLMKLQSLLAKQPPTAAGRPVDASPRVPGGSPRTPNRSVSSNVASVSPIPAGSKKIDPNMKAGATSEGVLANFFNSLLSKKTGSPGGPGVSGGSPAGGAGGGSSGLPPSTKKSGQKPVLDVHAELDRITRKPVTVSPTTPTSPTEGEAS
UniProt Q9Y512: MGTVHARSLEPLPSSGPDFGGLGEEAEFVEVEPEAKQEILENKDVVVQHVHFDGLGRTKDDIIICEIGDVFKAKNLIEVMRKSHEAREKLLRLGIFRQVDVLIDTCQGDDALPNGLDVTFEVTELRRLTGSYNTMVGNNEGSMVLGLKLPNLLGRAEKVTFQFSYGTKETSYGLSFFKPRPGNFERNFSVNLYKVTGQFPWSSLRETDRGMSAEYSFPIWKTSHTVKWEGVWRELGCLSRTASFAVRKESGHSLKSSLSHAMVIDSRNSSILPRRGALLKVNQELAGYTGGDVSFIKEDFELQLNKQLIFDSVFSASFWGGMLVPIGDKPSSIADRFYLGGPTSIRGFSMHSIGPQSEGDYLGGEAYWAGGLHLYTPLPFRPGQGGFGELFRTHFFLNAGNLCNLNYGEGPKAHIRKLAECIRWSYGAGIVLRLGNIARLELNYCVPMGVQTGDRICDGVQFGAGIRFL
UniProt Q9Y5J1: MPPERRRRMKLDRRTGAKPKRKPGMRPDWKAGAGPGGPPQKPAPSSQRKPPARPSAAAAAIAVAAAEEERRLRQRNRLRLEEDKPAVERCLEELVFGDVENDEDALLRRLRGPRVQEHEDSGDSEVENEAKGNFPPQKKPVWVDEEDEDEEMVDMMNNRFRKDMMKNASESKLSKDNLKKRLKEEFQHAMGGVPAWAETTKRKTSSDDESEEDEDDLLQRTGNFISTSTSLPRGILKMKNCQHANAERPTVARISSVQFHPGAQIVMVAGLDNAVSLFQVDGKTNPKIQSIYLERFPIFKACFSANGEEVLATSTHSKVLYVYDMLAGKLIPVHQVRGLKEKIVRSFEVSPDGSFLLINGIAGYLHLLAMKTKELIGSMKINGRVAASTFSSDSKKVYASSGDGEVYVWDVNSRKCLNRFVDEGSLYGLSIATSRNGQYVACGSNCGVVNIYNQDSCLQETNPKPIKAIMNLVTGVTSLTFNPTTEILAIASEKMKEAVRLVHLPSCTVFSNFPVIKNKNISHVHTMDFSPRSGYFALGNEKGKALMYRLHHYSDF
UniProt Q9Y462: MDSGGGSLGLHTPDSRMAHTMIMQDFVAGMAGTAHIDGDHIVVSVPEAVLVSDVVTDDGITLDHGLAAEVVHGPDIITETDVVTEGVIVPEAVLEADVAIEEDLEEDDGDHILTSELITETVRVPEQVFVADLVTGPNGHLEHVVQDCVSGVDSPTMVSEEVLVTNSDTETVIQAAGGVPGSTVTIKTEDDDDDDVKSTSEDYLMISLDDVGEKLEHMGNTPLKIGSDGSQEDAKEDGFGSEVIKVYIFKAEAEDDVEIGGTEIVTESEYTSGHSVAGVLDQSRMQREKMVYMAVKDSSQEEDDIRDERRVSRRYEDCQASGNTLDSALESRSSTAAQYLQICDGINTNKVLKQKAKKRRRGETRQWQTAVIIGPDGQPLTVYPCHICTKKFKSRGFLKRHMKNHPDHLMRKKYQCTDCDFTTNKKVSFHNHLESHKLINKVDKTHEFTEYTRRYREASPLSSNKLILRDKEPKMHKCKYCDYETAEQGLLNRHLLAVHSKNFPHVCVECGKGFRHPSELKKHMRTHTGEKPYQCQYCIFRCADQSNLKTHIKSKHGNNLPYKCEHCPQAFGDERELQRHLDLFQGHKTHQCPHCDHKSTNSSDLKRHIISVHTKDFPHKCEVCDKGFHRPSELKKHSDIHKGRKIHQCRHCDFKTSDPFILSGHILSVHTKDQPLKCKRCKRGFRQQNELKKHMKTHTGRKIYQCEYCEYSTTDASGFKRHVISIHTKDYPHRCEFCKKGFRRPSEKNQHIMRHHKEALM

Target	NP40-soluble protein abundance (concentration: 1mM)	NP40-soluble protein abundance (concentration: 2mM)	NP40-soluble protein abundance (concentration: 4mM)	NP40-soluble protein abundance (concentration: 6mM)	NP40-soluble protein abundance (concentration: 8mM)	NP40-soluble protein abundance (concentration: 10mM)
TELO2 (UniProt Q9Y4R8)	0.963 ± 0.046	0.9389 ± 0.0056	0.97 ± 0.051	0.978 ± 0.091	1.01 ± 0.068	0.98 ± 0.086
RAPGEF2 (UniProt Q9Y4G8)	1 ± 0.024	1.03 ± 0.053	1.01 ± 0.025	0.9776 ± 0.00032	0.9466 ± 0.0091	0.982 ± 0.022
X5CMH5 and related entries (UniProt Q03519)	0.964 ± 0.038	0.959 ± 0.015	0.975 ± 0.036	0.982 ± 0.055	1.03 ± 0.046	0.984 ± 0.04
TMED3 (UniProt Q9Y3Q3)	1.03 ± 0.02	0.959 ± 0.088	0.971 ± 0.019	0.937 ± 0.026	0.98 ± 0.028	0.942 ± 0.045
UniProt Q9Y5P6 and related entries	0.98 ± 0.018	0.888 ± 0.12	0.954 ± 0.039	0.916 ± 0.039	0.909 ± 0.027	0.858 ± 0.017
UniProt Q9Y4B4 and related entries	1.01 ± 0.039	1.031 ± 0.0021	1.01 ± 0.033	0.992 ± 0.024	0.953 ± 0.034	0.987 ± 0.045
TRPV2 (UniProt Q9Y5S1)	0.996 ± 0.022	1.026 ± 0.0087	1.026 ± 0.01	0.989 ± 0.026	0.952 ± 0.023	0.969 ± 0.038
UniProt Q9Y5Z9 and related entries	0.989 ± 0.042	1.02 ± 0.045	1 ± 0.042	1.005 ± 0.0059	1.03 ± 0.035	1.04 ± 0.031
TIMM13 (UniProt Q9Y5L4)	0.986 ± 0.019	0.999 ± 0.046	0.965 ± 0.022	0.963 ± 0.021	0.983 ± 0.028	0.975 ± 0.022
DNMT3A (UniProt Q9Y6K1)	0.9995 ± 0.0041	1.02 ± 0.023	1.04 ± 0.026	1.02 ± 0.036	1.037 ± 0.0094	1.058 ± 0.0098
MFHAS1 (UniProt Q9Y4C4)	1 ± 0.022	0.988 ± 0.026	0.992 ± 0.025	0.962 ± 0.04	0.998 ± 0.039	1.02 ± 0.029
RABGAP1 (UniProt Q9Y3P9)	0.985 ± 0.024	1.01 ± 0.058	0.9829 ± 0.0097	0.926 ± 0.028	0.897 ± 0.017	0.926 ± 0.013
TACC3 (UniProt Q9Y6A5)	1 ± 0.029	1.05 ± 0.063	1 ± 0.037	0.984 ± 0.014	0.947 ± 0.04	0.976 ± 0.049
SNX5 (UniProt Q9Y5X3)	1.019 ± 0.0086	1.05 ± 0.08	1.03 ± 0.025	1.04 ± 0.031	1.01 ± 0.046	1.05 ± 0.045
S4R3R2 (UniProt Q9NXR5)	1.04 ± 0.031	1.05 ± 0.063	1.02 ± 0.027	1.01 ± 0.041	0.983 ± 0.011	0.983 ± 0.022
DYNC1LI1 (UniProt Q9Y6G9)	1.03 ± 0.078	1.06 ± 0.045	0.999 ± 0.061	0.973 ± 0.1	0.968 ± 0.089	0.988 ± 0.11
UniProt Q9Y6V0-2|Q9Y6V0-5|Q9Y6V0-6	0.88 ± 0.092	0.769 ± 0.11	0.898 ± 0.073	0.948 ± 0.12	0.944 ± 0.14	0.906 ± 0.095
SAMM50 (UniProt Q9Y512)	0.9168 ± 0.0057	0.823 ± 0.18	0.91 ± 0.14	0.886 ± 0.038	0.973 ± 0.064	0.884 ± 0.15
IVNS1ABP (UniProt Q9Y6Y0)	0.954 ± 0.079	0.933 ± 0.07	0.958 ± 0.086	0.929 ± 0.069	0.912 ± 0.055	0.938 ± 0.087
MAD1L1 (UniProt Q9Y6D9)	1.02 ± 0.028	1.03 ± 0.039	1.02 ± 0.047	0.986 ± 0.021	0.983 ± 0.046	1 ± 0.057
CCDC9 (UniProt Q9Y3X0)	1.03 ± 0.022	1.05 ± 0.06	1.07 ± 0.042	1.06 ± 0.058	1.06 ± 0.016	1.08 ± 0.064
UniProt Q9Y5B6 and related entries	1.03 ± 0.048	1.05 ± 0.017	1.07 ± 0.057	1.06 ± 0.051	1.07 ± 0.049	1.14 ± 0.053
UTP18 (UniProt Q9Y5J1)	1.05 ± 0.029	1.07 ± 0.048	1.1 ± 0.044	1.23 ± 0.028	1.28 ± 0.062	1.36 ± 0.05
UniProt Q9Y5V3 and related entries	1 ± 0.08	1 ± 0.059	0.937 ± 0.08	0.869 ± 0.077	0.81 ± 0.027	0.858 ± 0.048
UniProt Q9Y462 and related entries	1 ± 0.032	1.02 ± 0.037	1.012 ± 0.0034	1.01 ± 0.036	1.024 ± 0.0028	1.02 ± 0.013
OAS3 (UniProt Q9Y6K5)	1.01 ± 0.012	1.02 ± 0.04	1.02 ± 0.032	0.998 ± 0.033	1.02 ± 0.043	0.998 ± 0.018
UniProt Q9Y4F3 and related entries	0.987 ± 0.038	1 ± 0.042	1 ± 0.037	0.992 ± 0.0089	1.01 ± 0.024	1.01 ± 0.02
UniProt Q9Y4Z0 and related entries	0.998 ± 0.061	1.1 ± 0.11	1.06 ± 0.079	1.09 ± 0.12	1.08 ± 0.084	1.14 ± 0.13
UniProt Q9Y4D1 and related entries	0.967 ± 0.021	1 ± 0.024	1 ± 0.034	0.9671 ± 0.0056	0.947 ± 0.024	0.99 ± 0.041

Another view of part of the listing above:
Target,NP40-soluble protein abundance (concentration: 1mM),NP40-soluble protein abundance (concentration: 2mM),NP40-soluble protein abundance (concentration: 4mM),NP40-soluble protein abundance (concentration: 6mM),NP40-soluble protein abundance (concentration: 8mM),NP40-soluble protein abundance (concentration: 10mM)
UniProt Q9Y462 and related entries,1 ± 0.032,1.02 ± 0.037,1.012 ± 0.0034,1.01 ± 0.036,1.024 ± 0.0028,1.02 ± 0.013
OAS3 (UniProt Q9Y6K5),1.01 ± 0.012,1.02 ± 0.04,1.02 ± 0.032,0.998 ± 0.033,1.02 ± 0.043,0.998 ± 0.018
UniProt Q9Y4F3 and related entries,0.987 ± 0.038,1 ± 0.042,1 ± 0.037,0.992 ± 0.0089,1.01 ± 0.024,1.01 ± 0.02
UniProt Q9Y4Z0 and related entries,0.998 ± 0.061,1.1 ± 0.11,1.06 ± 0.079,1.09 ± 0.12,1.08 ± 0.084,1.14 ± 0.13
UniProt Q9Y4D1 and related entries,0.967 ± 0.021,1 ± 0.024,1 ± 0.034,0.9671 ± 0.0056,0.947 ± 0.024,0.99 ± 0.041

From the supplement of paper PMC6411743
